Source: patent US20080221109A1, “PESTICIDAL SUBSTITUTED THIOETHERS” (priority 2005, published 2008)
Some of these results come from one statement about several compounds together.

System: Rhipicephalus sanguineus
Assay: Method B: screening method to test contact activity against Rhipicephalus sanguineus (Brown dog tick)
Assay type: in vivo
Conditions: test concentration 1000 ppm; treated filter paper, 20-30 larvae (L1); assessed 24 hours after application vs untreated control

| Structure (SMILES) | contact control of Rhipicephalus sanguineus |
| --- | --- |
| O=C1CCCC(Sc2ccccc2)C1 (centres unmarked) [Compound 04-01] | at least 70% |
| O=C1CCCC(Sc2ccc(Cl)cc2)C1 (centres unmarked) [Compound 04-11] | at least 70% |
